Reference: PubChem BioAssay AID1159596 (NIAID, 2016)

Screen: 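Genes whose silencing alters the TNF reporter response of macrophage-like cells to peptidoglycan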 (primary screen)
Cell system: human THP1 B5 monocytic reporter cells made macrophage-like with PMA
Reagent: single siRNA against human genes
Duration: assayed 48 to 72 hours after siRNA transfection; peptidoglycan stimulation lasted 4 hours
Conditions: Staphylococcus aureus peptidoglycan for 4 hours; dose not given
Detection: 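Mean over replicate screens of a robust z per siRNA from the dual luciferase TNF promoter reporter after 4 h peptidoglycan, median/MAD normalised, relative to negative controls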
Scale: TNF reporter z-score: higher = stronger TNF promoter reporter response to peptidoglycan
Rule for the call: In these data the active calls have TNF reporter z-score, replicate mean at about -1.5 or lower, or at about 1.5 or higher
Meaning of the calls: active = reporter shifted beyond cut (either direction); inactive = reporter near control level
Here is one part, drawn at random, of 756 reagents tested. 143 of all reagents (19%) were called active. 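Active means the reporter moved past about ±1.5 in either direction; scores are per single siRNA, not per gene; peptidoglycan dose not given.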 Unmarked entries are inactive. The numbers tell different reagents against one gene apart. The record does not give: the amount of reagent.

MAP2K6 #1: TNF reporter z-score, replicate mean = -0.59
MAP2K6 #2: TNF reporter z-score, replicate mean = 0.138
MAP2K6 #3: TNF reporter z-score, replicate mean = 0.258
MAP2K6 #4: TNF reporter z-score, replicate mean = -0.00803
MAP2K6 #5: TNF reporter z-score, replicate mean = 0.284
MAP2K6 #6: TNF reporter z-score, replicate mean = 0.505
IL12B #1: TNF reporter z-score, replicate mean = -1.22
IL12B #2: TNF reporter z-score, replicate mean = -0.875
IL12B #3: TNF reporter z-score, replicate mean = -0.742
IL12B #4: TNF reporter z-score, replicate mean = -1.15
IL12B #5: TNF reporter z-score, replicate mean = -1.37
IL12B #6: TNF reporter z-score, replicate mean = -0.799
ETS1 #1: TNF reporter z-score, replicate mean = -0.571
ETS1 #2: TNF reporter z-score, replicate mean = -0.842
ETS1 #3: TNF reporter z-score, replicate mean = -0.639
ETS1 #4: TNF reporter z-score, replicate mean = -0.786
ETS1 #5: TNF reporter z-score, replicate mean = 1.49
ETS1 #6: TNF reporter z-score, replicate mean = -2.37 (active)
IRF3 #1: TNF reporter z-score, replicate mean = -0.509
IRF3 #2: TNF reporter z-score, replicate mean = -0.853
IRF3 #3: TNF reporter z-score, replicate mean = -1.21
IRF3 #4: TNF reporter z-score, replicate mean = 0.387
IRF3 #5: TNF reporter z-score, replicate mean = -0.245
IRF3 #6: TNF reporter z-score, replicate mean = -1.21
NFKB2 #1: TNF reporter z-score, replicate mean = -0.19
NFKB2 #2: TNF reporter z-score, replicate mean = -0.985
NFKB2 #3: TNF reporter z-score, replicate mean = 2.16 (active)
NFKB2 #4: TNF reporter z-score, replicate mean = 0.148
NFKB2 #5: TNF reporter z-score, replicate mean = -4.7 (active)
NFKB2 #6: TNF reporter z-score, replicate mean = 0.206
IFNAR1 #1: TNF reporter z-score, replicate mean = -0.0613
IFNAR1 #2: TNF reporter z-score, replicate mean = -1.2
IFNAR1 #3: TNF reporter z-score, replicate mean = -0.315
IFNAR1 #4: TNF reporter z-score, replicate mean = -0.632
IFNAR1 #5: TNF reporter z-score, replicate mean = -0.292
IFNAR1 #6: TNF reporter z-score, replicate mean = -0.0907
DUSP2 #1: TNF reporter z-score, replicate mean = -0.372
DUSP2 #2: TNF reporter z-score, replicate mean = -0.85
DUSP2 #3: TNF reporter z-score, replicate mean = -3.92 (active)
DUSP2 #4: TNF reporter z-score, replicate mean = 0.245
DUSP2 #5: TNF reporter z-score, replicate mean = 0.0638
DUSP2 #6: TNF reporter z-score, replicate mean = -0.424
TLR6 #1: TNF reporter z-score, replicate mean = -1.53 (active)
TLR6 #2: TNF reporter z-score, replicate mean = 0.0592
TLR6 #3: TNF reporter z-score, replicate mean = -1.75 (active)
TLR6 #4: TNF reporter z-score, replicate mean = -1.56 (active)
TLR6 #5: TNF reporter z-score, replicate mean = -1.83 (active)
TLR6 #6: TNF reporter z-score, replicate mean = -1.39
